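Compounds were printed on reactive glass slides in duplicate spots, a dye-labelled oligonucleotide was laid over them, and the fluorescence left after washing was read. The data file lists only calls. An earlier report of the laboratory on the PreQ1, TPP and SAM-II riboswitches (doi:10.1038/s41467-019-09493-3) used 1 µM RNA for 2 h and required a mean Z-score above 3 (spot signal-to-noise against the whole library), a score well above that on a control array, and duplicate spots agreeing (coefficient of variation under 100); it then also set aside compounds that hit other targets, which this list keeps. The cut-offs behind this list may differ. A missing hit is not proof of no binding, and a hit is not a measured affinity.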 A compound is marked Y if it was called a hit and N if it was screened but was not. This is an unselected part of the compounds tested.

Targets, with sequences 5′ to 3′:
TPP: TPP riboswitch RNA three-way junction, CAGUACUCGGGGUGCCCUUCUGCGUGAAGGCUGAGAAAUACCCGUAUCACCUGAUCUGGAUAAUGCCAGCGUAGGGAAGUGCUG. About 24,000 compounds screened, about 160 hits.

| Compound | TPP |
|---|---|
| `COC(=O)C1=C(C)NC(C)=C(C(=O)OC(C)C)C1c1cccc2nonc12` (stereo not given) | N |
| `CCCc1[nH]nc2c1C(c1cc(OC)c3c(c1)OCO3)C(C#N)=C(N)O2` (stereo not given) | N |
| `Cc1cccn2c(CC(=O)N[C@@H]3CC[C@@H](N)C3)cnc12` | N |
| `CC[C@]1(O)C[C@H]2CN(CCc3c([nH]c4ccccc34)[C@@](C(=O)OC)(c3cc4c(cc3OC)N(C=O)[C@H]3[C@@](O)(C(=O)OC)[C@H](OC(C)=O)[C@]5(CC)C=CCN6CC[C@]43[C@@H]65)C2)C1` | N |
| `CCO[C@H]1C[C@@H](O)C12CCN(C(=O)Cc1nonc1C)CC2` | N |
| `CC1(C)NC(=O)N(CC(O)COc2ccc(Br)cc2)C1=O` (stereo not given) | N |
| `O=C(Cc1ccccc1)C1CCCN(C(CO)CO)C1` (stereo not given) | N |
| `Cc1cccc(C#Cc2ccccc2)n1` | N |
| `COCc1cc(C)nc(N)c1C#N` | N |
| `O=C(NCC(O)c1cccc(O)c1)c1cc(=O)c2cccc(F)c2[nH]1` (stereo not given) | N |
| `COc1cc(OC)c(C2C(C#N)=C(N)Oc3[nH]nc(C)c32)c(OC)c1` (stereo not given) | N |
| `c1ccc(COc2cccc(CNC3CCOC4(CCOCC4)C3)c2)cc1` (stereo not given) | N |
| `COc1nc(N)nc2c1ncn2[C@@H]1O[C@H](CO)[C@@H](O)[C@@H]1O` | N |
| `O=C(c1ccc(CO)cc1)N1C[C@@H]2CC[C@H](C1)N(CC1CCC1)C2` | N |
| `O=C(NCCO)C1=Cc2cc(Br)ccc2OC=C1` | N |
| `COc1ccc2c(c1)CCN1C2CCN2C(=O)CCC21` (stereo not given) | N |
| `CCC(NC(=O)c1noc(C)c1CO)c1nc(C)c(C)s1` (stereo not given) | N |
| `CC1=C(C(=O)OC(C)(C)C)C2(C(=O)Nc3ccc(Cl)cc32)C(C#N)=C(N)O1` (stereo not given) | N |
| `CCCCCNC(=O)c1nn(-c2ccc(C)c(C)c2)nc1CO` | N |
| `O=c1cc(O)c(Cl)c[nH]1` | N |
| `O=C(CC1COCCN1)NCCc1nc(-c2ccccn2)no1` (stereo not given) | N |
| `Cc1ccccc1NC1CCCCC1NS(=O)(=O)c1ccc(Cl)cc1` (stereo not given) | N |
| `CC(O)CSc1nc2c(c(=O)n(C)c(=O)n2C)n1Cc1ccccc1` (stereo not given) | N |
| `Cn1c(=O)[nH]c(=O)c2[nH]c(N(CCO)Cc3ccccc3)nc21` | N |
| `COc1ccc(CNC(=O)c2nn(-c3ccc(C)c(C)c3)nc2CO)cc1` | N |
| `CCOC(=O)c1ccc(NC2=C(C(N)=O)S(=O)(=O)c3ccccc32)cc1` | N |
| `O=C1C=CC=CC1=C1NC(=C2C=CC=CC2=O)N(c2ccc(C(=O)O)cc2)N1` | N |
| `CNC(=O)c1cc(Oc2ccc(NC(=O)Nc3ccc(Cl)c(C(F)(F)F)c3)cc2)ccn1` | N |
| `CCOC(=O)N1CCC(Nc2c(N3CCN(Cc4ccccc4)CC3)c(=O)c2=O)CC1` | N |
| `Cc1cccc(CN2c3ccccc3C3=C(C(c4ccc(F)cc4)C(C#N)=C(N)O3)S2(=O)=O)c1` (stereo not given) | N |
| `COCCOC(=O)C1=C(N)OC2=C(C(=O)CC(C)(C)C2)C1c1ccncc1` (stereo not given) | N |
| `Cc1nc(C(=O)NCC(=O)O)c(O)c2ccc(Oc3ccccc3)cc12` | N |
| `Cc1nc(N)nc(N2CCC3(CC(=O)c4ccccc4O3)C2)c1C` (stereo not given) | N |
| `O=C(O)C1CN(Cc2ncccn2)CCN(C(=O)CCO)C1` (stereo not given) | N |
| `COc1ccc(N(C(=O)Oc2c(C)cccc2C)c2ccnc(Nc3ccc(N4CCN(C)CC4)cc3)n2)c(OC)c1` | N |
| `CC1CCc2sc3ncnc(NCCN4CCOCC4)c3c2C1` (stereo not given) | N |
| `Cc1cccc(C(NC(=O)c2cn(CCN3CCNCC3)nn2)C2CC2)n1` (stereo not given) | N |
| `Cc1nn(-c2ccccc2)c2sc(C(=O)NCCO)cc12` | N |
| `CCN(Cc1cccc(C(=O)Nc2c(C)nn(C)c2C)c1)[C@H]1COC[C@@H]1O` | N |
| `Cc1ccc([C@@H]2C[C@H](c3cccc(Cl)c3)n3nc(N)nc3N2)cc1` | N |
| `COc1cccc2c1C(=O)c1c(O)c3c(c(O)c1C2=O)C[C@@](O)(C(=O)CO)C[C@H]3O[C@H]1C[C@H](N)[C@H](O)[C@H](C)O1` | N |
| `CC(C)(C)NC1=NCCNC(c2ccccc2)=C1.CS(=O)(=O)O` | N |
| `O=S(=O)(NCC(Nc1ccccc1Br)c1ccccc1)c1ccc(Cl)cc1` (stereo not given) | N |
| `Nc1nnc(CCNc2nccc(CCC(F)(F)F)n2)s1` | N |
| `Cc1ccc(Cl)cc1N1CCN(CC(O)COCC2COc3ccccc3O2)CC1.Cl.Cl` (stereo not given) | N |
| `CCOC(=O)c1cccc(Nc2c(-c3ccc(N(C)C)cc3)nc3cnccn23)c1` | N |
| `CCC(CO)NCc1ccc(OCc2ccc3c(c2)n(C)c(=O)n3C)c(OC)c1` (stereo not given) | N |
| `Cc1ccc(-c2nc3cc(Cl)ccc3o2)cc1N` | N |
| `COc1ccccc1OCC(O)Cn1c(=N)n(CCN2CCCCC2)c2ccccc21` (stereo not given) | N |
| `CCOC(=O)c1cccc(Nc2nc(C(=O)OCC)nc3ccccc23)c1` | N |
| `CCN(C)[C@H]1CN(C(=O)CCc2scnc2C)C[C@@H]1O` | N |
| `O=C(O)c1cc(NCc2ccccc2C(F)(F)F)ccc1N1CCOCC1` | N |
| `C1COCCN1.COC(=O)C1=C(C)NC(S)=C(C#N)C1c1cccs1` (stereo not given) | N |
| `C=CCSC(CC)(CC)C(N)=O` | N |
| `Oc1ccc2ccccc2c1/N=N/c1ccc(F)cc1` | N |
| `CCOC(=O)c1sc2nc(C)nc(Nc3ccc(OC)c(OC)c3)c2c1C` | N |
| `N#CC1=C(N)Oc2c(c(=O)oc3ccccc23)C1c1ccc(F)cc1F` (stereo not given) | N |
| `CCCCNc1oc(-c2ccccc2)nc1S(=O)(=O)c1ccc(Cl)cc1` | N |
| `CC1Cc2ccccc2N1CC(O)COc1ccc(-c2ccccc2)cc1` (stereo not given) | N |
| `COc1cc(C(=O)NS(=O)(=O)c2ccccc2C)ccc1Cc1cn(C)c2ccc(NC(=O)OC3CCCC3)cc12` | N |
| `O=S(=O)(c1ccc2nc(NCc3cccs3)cnc2c1)N1CCCCC1` | N |
| `CN(Cc1ccccc1)S(=O)(=O)c1ccc(-c2nc(C#N)c(NC3CC3)o2)cc1` | N |
| `Cn1c(N2CCCCS2(=O)=O)nc(C(=O)NCc2ccc(F)cc2)c(O)c1=O` | N |
| `Nc1nc(CSc2nnc(-c3ccccc3)[nH]2)nc(Nc2ccccc2)n1` | N |
| `Cc1cnc(C(=O)N2CC[C@@H](c3sccc3C)[C@H](O)C2)cn1` | N |
| `Cn1c(=O)n(C)c2cc(C(O)COc3ccc(CNCCc4ccccc4)cc3)ccc21` (stereo not given) | N |
| `CCn1c(CC2CCNCC2)nn(Cc2noc(-c3ccccc3)n2)c1=O` | N |
| `Cc1ccc2c(c1)c1ccc3c(c1n2C)C(=O)C=CC3=O` | N |
| `Cc1cc(C2C(C#N)=C(N)N(c3ccc(F)cc3)C3=C2C(=O)CCC3)c(C)s1` (stereo not given) | N |
| `CCOC(=O)C1CCN(c2c(Nc3ccc(F)cc3)c(=O)c2=O)CC1` | N |
| `Nc1[nH]nc(NCc2ccccc2)c1C(=O)Nc1cccc(C(F)(F)F)c1` | N |
| `N[C@@H](Cc1c[nH]cn1)c1nc(Cn2cncn2)nn1-c1ccccc1Cl` | N |
| `COCCC1(CO)CCCN(C(=O)CCS(C)(=O)=O)C1` (stereo not given) | N |
| `Nc1ccc2ccc(O)nc2n1` | N |
| `CC[C@@H](C)[C@H](NC(=O)[C@H](CC1CCCCC1)NC(=O)c1ccno1)C(=O)N1CCC2(CCc3ccccc32)CC1` | N |
| `CC(NC1CCS(=O)CC1)c1ccccc1Cl` (stereo not given) | N |
| `COc1ccc(F)c(C(=O)N2C[C@H]3C[C@H](O)[C@H](O)C[C@H]3C2)c1F` | N |
| `Nc1nnc(CCn2cnc3sc4c(c3c2=O)CCNC4)s1` | N |

Some entries from above, unchanged:

{"compound": "Cc1cccc(C(NC(=O)c2cn(CCN3CCNCC3)nn2)C2CC2)n1", "stereo": "stereo not given", "TPP": "N"}
{"compound": "CCOC(=O)N1CCC(Nc2c(N3CCN(Cc4ccccc4)CC3)c(=O)c2=O)CC1", "TPP": "N"}
{"compound": "Nc1nc(CSc2nnc(-c3ccccc3)[nH]2)nc(Nc2ccccc2)n1", "TPP": "N"}
{"compound": "CC1(C)NC(=O)N(CC(O)COc2ccc(Br)cc2)C1=O", "stereo": "stereo not given", "TPP": "N"}
{"compound": "CCC(CO)NCc1ccc(OCc2ccc3c(c2)n(C)c(=O)n3C)c(OC)c1", "stereo": "stereo not given", "TPP": "N"}
{"compound": "O=c1cc(O)c(Cl)c[nH]1", "TPP": "N"}

Calls as published in the ROBIN set (doi:10.1002/anie.202211358).